# Among all 410,000 compounds or so, about 18,000 (4.4%) were called active. The shares of active, inactive and inconclusive entries below differ from those in the screen. Cut-off read from the data, not from the text of the source: active = activity change below about -60%; inconclusive = no clear call, values can overlap the other calls; inactive = above about -39%.
# Test: qHTS Assay for inhibitors of the human cytomegalovirus (HCMV)
# Details: HFF cells, HCMV-luciferase reporter, 72 h; at 57.5 µM; active compounds read low
# Summary of the method: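 HFF cells seeded 16 h at 37C, treated with compounds, infected with luciferase-reporter HCMV at MOI 1 PFU/cell; luciferase read at 72 h post infection, normalized to buffer-only and Salinomycin controls.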
# % is set by controls: 0 for no effect and ±100 for the full control effect.
row,Compound,"activity change, negative = inhibition"
1,CCOc1ccccc1OCC(=O)NCc1ccco1,inactive: 32.1%
2,CC(Oc1ccccc1)C(=O)Nc1cccc([N+](=O)[O-])c1 (stereo unspecified),inconclusive: -45.8%
3,Nc1nnc(-c2ccccc2[N+](=O)[O-])o1,inconclusive: -58%
4,O=C(O)c1ccccc1Nc1ccc([N+](=O)[O-])cc1,inconclusive: -46.6%
5,O=C(CN1CCCCCCC1)N/N=C/c1ccc(F)c(F)c1,inconclusive: -48.7%
6,CC(C)C(=O)Nc1ccc(NC(=O)c2ccco2)cn1,inactive: 41.7%
7,CSc1ncccc1C(=O)N1CCCC(C(=O)c2ccc3ccccc3c2)C1 (stereo unspecified),inactive: -4.76%
8,COc1ccc(/C=C/C(=O)N2CCN(c3ccccc3)CC2)cc1S(=O)(=O)N1CCOCC1,inconclusive: -57.7%
9,CCCNC(=O)c1cc2c(c(-c3cccc(-c4cc5ccccc5o4)c3)n1)[C@@H](CCO)N(C(=O)NC(C)C)C2,inconclusive: -59.5%
10,COc1ccc(/C=N/NC(=O)CNC(=O)c2ccc(S(=O)(=O)N3CCCC3)cc2)c(OC)c1,inconclusive: -47.9%
11,CCOc1ccccc1CNC(=O)C1CCN(S(=O)(=O)c2c(C)noc2/C=C/c2ccc(C)cc2)CC1,inconclusive: -49.7%
12,COc1ccc(NC(=O)c2sc3nc(-c4cccnc4)ccc3c2N)cc1,inconclusive: -44.6%
13,O=C(CCn1nc(-c2ccccc2)ccc1=O)N1CCN(c2ccccc2)CC1,inconclusive: -48%
14,Fc1ccccc1N1CCN(c2ncnc3nc[nH]c23)CC1,inconclusive: -53.5%
15,O=c1c2cc(F)ccc2[nH]c(=S)n1Cc1ccc(F)cc1,inconclusive: -53%
16,COc1ccc(CCNc2ncnc3[nH]ncc23)cc1OC,inconclusive: -55.9%
17,OC(c1ccc(F)cc1)c1nc(-c2csc3ccccc23)cs1 (stereo unspecified),inconclusive: -59.1%
18,COc1ccc(C2=NO[C@@H]3C(=O)N(c4ccc5c(c4)OCCO5)C(=O)[C@H]23)cc1OC,inconclusive: -54%
19,CCN(CC)C(=O)Oc1ccc2ccccc2c1Br,active: -88.9%
20,Cc1ccc(C(=O)CNc2cccc(Cl)c2)cc1,inconclusive: -51.5%
21,Cc1ccc(NC(=O)Nc2cccn(Cc3c(F)cccc3Cl)c2=O)cc1,inactive: 33.1%
22,Cc1cccc(-c2nc(CSCC(=O)N3CCN(c4ccccc4)CC3)c(C)o2)c1,inactive: -23.4%

# A few values from the entries so far.
# activity change, negative = inhibition, CCOc1ccccc1CNC(=O)C1CCN(S(=O)(=O)c2c(C)noc2/C=C/c2ccc(C)cc2)CC1 is entered as inconclusive: -49.7%
# activity change, negative = inhibition, CC(C)C(=O)Nc1ccc(NC(=O)c2ccco2)cn1 is entered as inactive: 41.7%
# activity change, negative = inhibition, O=C(CN1CCCCCCC1)N/N=C/c1ccc(F)c(F)c1 is entered as inconclusive: -48.7%

# (further entries)

row,Compound,"activity change, negative = inhibition"
1,CC(O)(c1ccc(F)c(F)c1)c1nc(-c2cc3ccccc3o2)cs1 (stereo unspecified),inactive: -20.7%
2,COc1ccc(Nc2nc(N3CCCC3)nc3ccccc23)c(OC)c1,inconclusive: -54.3%
3,O=C(NCc1cccnc1)/C(=C\c1ccc(-c2ccc(Cl)c(Cl)c2)o1)S(=O)(=O)c1ccccc1,active: -102%
4,O=C(CSc1nc2ncc(Br)cc2[nH]1)c1cccc([N+](=O)[O-])c1,inactive: -2.25%
5,COc1ccc2c(CN3CCN(Cc4ccccc4)CC3)cc(=O)oc2c1,inactive: -31.5%
6,Oc1ccc(CCc2n[nH]c(=S)n2-c2ccc(F)cc2)cc1,inconclusive: -40.2%
7,CC(C)(C)OC(=O)CC1(C#N)c2ccccc2C(Br)=CN1C(=O)c1ccccc1 (stereo unspecified),inconclusive: -57.4%
8,O=C(NC(Cc1ccccc1)C(=O)O)/C(=C/c1ccc([N+](=O)[O-])cc1)NC(=O)c1ccco1 (stereo unspecified),inconclusive: -40.5%
9,COc1cc2c(-c3ccc(O)cc3)nc3c(c(C)nn3-c3ccccc3)c2cc1OC,active: -71.8%
10,COc1ccc(NC(=O)c2ccc3c(=O)n(-c4ccc(OC)cc4OC)c(=S)[nH]c3c2)cc1,inactive: -32.8%
11,CCCOc1ccc2oc(=O)c3c(c2c1)CCCN3C(=O)CN(C)Cc1ccccc1,inconclusive: -43.7%
12,Cc1ccc(C)c(N(C(=O)c2snc(C(N)=O)c2N)C(C(=O)NCC2CCCO2)c2ccc(C)o2)c1 (stereo unspecified),inactive: -6.81%
13,CCC1CCCCN1C(=O)CSc1n[nH]c(-c2ccccc2Cl)n1 (stereo unspecified),inactive: 60.2%
14,Cn1cc(/C=C(\C#N)C(=O)Nc2ncc(Cc3ccc(Cl)cc3)s2)c2ccccc21,inconclusive: -45%
15,CC(=O)NCCc1nc2ccccc2[nH]1,inactive: -0.75%
16,Cc1ccc(OS(=O)(=O)c2ccc(N3C(=O)CCC3=O)cc2)cc1,inconclusive: -42.9%
17,Cc1cc(=O)n(Cc2ccccc2)c2ccccc12,inconclusive: -49.5%
18,CN(Cc1ccccc1F)C(=O)c1cccc(NC(=O)CC2SC(N3CCCCC3)=NC2=O)c1 (stereo unspecified),inconclusive: -52.7%
19,CC12CCC(C/C1=N/OC(=O)c1cccc([N+](=O)[O-])c1)C2(C)C (stereo unspecified),active: -65.3%
20,CCOc1ccc(C(=O)CCC(=O)N2CCN(c3ccccc3O)CC2)cc1,inactive: -20.9%
21,O=c1c2cc(NC(=S)N3CCCC3)ccc2nc2n1CCCCC2,inconclusive: -50.6%
22,COc1ccc(O)c(/C=N/NC(=O)c2ccc(N3CCCC3=O)cc2)c1,inconclusive: -40.9%

# Reprinted from the listing for reference:
row,Compound,"activity change, negative = inhibition"
3,O=C(NCc1cccnc1)/C(=C\c1ccc(-c2ccc(Cl)c(Cl)c2)o1)S(=O)(=O)c1ccccc1,active: -102%
4,O=C(CSc1nc2ncc(Br)cc2[nH]1)c1cccc([N+](=O)[O-])c1,inactive: -2.25%
5,COc1ccc2c(CN3CCN(Cc4ccccc4)CC3)cc(=O)oc2c1,inactive: -31.5%

# (list continues)

row,Compound,"activity change, negative = inhibition"
1,CC1CCCN(Cc2nc3c(c(=O)n(C)c(=O)n3C)n2Cc2ccc(Cl)cc2Cl)C1 (stereo unspecified),inactive: 3.26%
2,Cc1cc2c3c([nH]c2cc1S(=O)(=O)NCCCOC(C)C)CC(C)(C)CC3=O,inconclusive: -43%
3,COc1cccc(CNCCc2c[nH]c3ccccc23)c1OCc1ccccc1,inconclusive: -40.5%
4,COC(=O)CSc1nnc(COc2ccc([N+](=O)[O-])cc2)n1C,inconclusive: -43.4%
5,CCOC(=O)c1cccc(NC(=O)N2CC(CC)Sc3ccccc32)c1 (stereo unspecified),inconclusive: 0%
6,FC(F)(F)c1cccc(N2CCN(Cc3nnc(-c4ccc5c(c4)OCO5)o3)CC2)c1,inactive: 1.34%
7,NC(=O)c1cc([N+](=O)[O-])ccc1NCCN1C(=O)c2ccc(C(=O)O)cc2C1=O,inconclusive: -42.7%
8,Fc1ccc(NC(=S)Nc2ccc(Cl)cc2)cc1,active: -78.4%
9,CCCS(=O)(=O)NCCc1cc2c(C)ccc(C)c2[nH]c1=O,inconclusive: -47.5%
10,C/C(=N/NC(=O)CCc1c(C)n[nH]c1C)c1cccc([N+](=O)[O-])c1,inactive: 26.9%
11,CCn1c(=O)c2sccc2n(CC(=O)NCCC2=CCCCC2)c1=O,inconclusive: -48.3%
12,Cc1[nH]n(-c2ccccc2)c(=O)c1/C=N/NC(=O)c1ccccc1F,active: -93.5%
13,CCCOc1ccc(-c2nc(C#N)c(NCCCn3ccnc3)o2)cc1,inconclusive: -42.8%
14,COc1ccccc1/C=C/CN1CCN(Cc2ccc(C)o2)C(CCO)C1 (stereo unspecified),inactive: 27.1%
15,COc1ccc2c(c1)-c1nc(/N=C/c3ccc(O)cc3)sc1CC2,inconclusive: -51.8%
16,Cc1ccc(C)c(NCc2n[nH]c(=S)n2-c2ccccc2)c1,inconclusive: -49.8%
17,S=C(Nc1cccc(Cl)c1)NC1CC2CCCC(C1)N2C1CCCC1 (stereo unspecified),inconclusive: -43.5%
18,CCOc1ccc2nc(N3CCC(C(=O)NCCCN4CCOCC4)CC3)sc2c1,inactive: 37.3%
19,O=C(Cn1ncc2c3ccccc3n(Cc3ccccc3)c2c1=O)NCCCN1CCCC1,inconclusive: -43.5%
20,Cc1ccsc1C1NC(=O)c2c(sc3c2CCN(C)C3)N1 (stereo unspecified),inactive: 0.0056%
21,Cc1ccc(NCC(=O)N/N=C\C(Br)=C\c2ccccc2)cc1,inconclusive: -45.9%
22,COc1cccc(C(=O)C2CCCN(Cc3ccc(OC)c(Cn4cncn4)c3)C2)c1 (stereo unspecified),inactive: 0%

row,Compound,"activity change, negative = inhibition"
1,Cc1ccc(S(=O)(=O)N2CCN(Cc3nnc(-c4c(-c5ccccc5)noc4C)o3)CC2)cc1,inactive: -29.9%
2,CN1/C(=C\C(=O)CN2C(=O)NC3(CCCCCC3)C2=O)C(C)(C)c2ccccc21,inconclusive: -54.8%
3,CC(C)c1ccc2oc(-c3ccc(Cl)c(NC(=O)Cc4ccccc4)c3)nc2c1,inconclusive: -59.6%
4,CCOC(=O)N1CCC(NC(=O)c2ccc3c(c2)N(Cc2ccc(Cl)cc2)C(=O)c2ccccc2S3(=O)=O)CC1,inactive: 15.8%
5,COC(=O)CC1C(=O)NCCN1C(=O)CSc1nc2ccc([N+](=O)[O-])cc2s1 (stereo unspecified),inconclusive: -51.4%
6,Cc1sc(-c2ccccn2)nc1OC(=O)c1cccc(Cl)c1Cl,inconclusive: -45.9%
7,CCOc1ccc(Cn2c(CNS(=O)(=O)c3ccc(CC)cc3)nc3cccnc32)cc1,inactive: 20.7%
8,Cc1cc(/C=C2/C(=O)NN(c3ccccc3)C2=O)c(C)n1-c1ccc(O)cc1,active: -86.1%
9,Cc1cc(C)cc(Oc2ccc(N)cc2)c1,inactive: 32.4%
10,COCCCNC(=O)c1cccc2c(-c3ccnn3C)coc12,inactive: 35.2%
11,Cc1nnc(SCC(=O)Nc2sccc2C(N)=O)n1Cc1ccccc1,inconclusive: -50.6%
12,O=C(Nc1nc2c(s1)CCCC2)c1ccccc1F,active: -68.5%
13,COC(=O)c1cn(C(=O)c2cccc3ccccc23)c2ccccc12,inconclusive: -53.8%
14,CCOC(=O)c1ccc(N2C(=O)c3n[nH]c(-c4cccs4)c3C2c2ccc(OC)cc2OC)cc1 (stereo unspecified),active: -91.6%
15,Clc1ccc(N2CCN(/N=C/c3ccncc3)CC2)cc1,inconclusive: -48%
16,Cn1c(CSCc2ccc(Cl)c(Cl)c2)n[nH]c1=S,active: -66.6%
17,COc1ccc(CNC(=O)c2cc3oc4ccccc4c3n2C)cc1OC,inconclusive: -51.7%
18,Cc1ccccc1C(=O)Nc1cccc(C(=O)N/N=C/c2cc(Cl)cc([N+](=O)[O-])c2O)c1,inactive: -21.7%
19,CCCNC(=O)CN1C(=O)c2c(c3ccccc3n2C)C1c1ccc(OC)cc1 (stereo unspecified),inconclusive: 0%
20,CC(NC(=O)c1ccco1)C(=O)OCC(=O)c1ccc(Cl)s1 (stereo unspecified),inconclusive: -40.7%

# From PubChem BioAssay AID1259415 (National Center for Advancing Translational Sciences (NCATS), 2018)
